From US12576047B2, “Telomerase activating compounds for use in fertility and related applications” (Neuromagen Pharma Ltd, priority 2017, dated 2026)
Some results were stated once for a whole list of compounds, not compound by compound.

Tested on: ICR mice
Experiment: Sperm count from the epididymis, with or without X-ray radiation
Type: in vivo, mouse
Conditions: X-ray irradiated mice, 12 hrs post-radiation
Procedure: Toward this end, ICR mice (3 months old) were injected with 6 mg/kg of Compound 79, Compound 68 or Compound 70, or mice were subjected to X-ray radiation (2.5 Gy) followed by immediately injection of the respective compounds. Control mice were untreated or vehicle treated with or without exposure to X-ray radiation. […] Testes were also taken for immunohistochemical and immunofluorescence analysis with various spermatogenesis markers. Epididymis was also taken for sperm count.

## CC(c1cc(Br)c(O)c(Br)c1)(c1cc(Br)c(O)c(Br)c1)c1cc(Br)c(O)c(Br)c1 [Compound 68]
  increase of numbers of sperms in the epididymis: 1.5-2.7 folds
